In article doi:10.1101/2020.04.12.037986:
No constants are given. Whether binding was seen depends on the method and setting. In cells and extracts the contact can be indirect. Some binding calls cover weakened binding; strength is not graded here.

Target: T1, phospho TAK1-Thr184/187 (human (endogenous in MDA-MB-231 and T47D)) (UniProt O43318)
T1 sequence (chain, phospho TAK1-Thr184/187 (by the antibody used)): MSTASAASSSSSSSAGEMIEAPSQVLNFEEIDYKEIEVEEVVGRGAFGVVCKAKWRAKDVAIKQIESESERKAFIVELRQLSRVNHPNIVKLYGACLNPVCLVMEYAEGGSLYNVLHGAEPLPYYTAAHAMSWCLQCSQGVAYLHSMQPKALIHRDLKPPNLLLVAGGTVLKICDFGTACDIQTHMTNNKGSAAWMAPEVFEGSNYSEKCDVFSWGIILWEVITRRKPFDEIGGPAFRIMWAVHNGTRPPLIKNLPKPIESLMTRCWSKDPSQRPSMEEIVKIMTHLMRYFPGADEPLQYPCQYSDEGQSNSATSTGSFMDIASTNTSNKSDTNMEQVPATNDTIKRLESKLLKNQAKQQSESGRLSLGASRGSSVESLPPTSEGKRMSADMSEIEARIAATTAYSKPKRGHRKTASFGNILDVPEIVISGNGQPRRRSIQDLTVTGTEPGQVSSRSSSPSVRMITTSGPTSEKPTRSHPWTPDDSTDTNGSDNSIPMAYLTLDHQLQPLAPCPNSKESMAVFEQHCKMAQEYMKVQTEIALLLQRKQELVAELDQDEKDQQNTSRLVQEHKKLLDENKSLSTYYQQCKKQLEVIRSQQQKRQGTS
Assay: co-IP

B1: TAB1 (protein, UniProt Q15750 1-504)
chain: MAAQRRSLLQSEQQPSWTDDLPLCHLSGVGSASNRSYSADGKGTESHPPEDSWLKFRSENNCFLYGVFNGYDGNRVTNFVAQRLSAELLLGQLNAEHAEADVRRVLLQAFDVVERSFLESIDDALAEKASLQSQLPEGVPQHQLPPQYQKILERLKTLEREISGGAMAVVAVLLNNKLYVANVGTNRALLCKSTVDGLQVTQLNVDHTTENEDELFRLSQLGLDAGKIKQVGIICGQESTRRIGDYKVKYGYTDIDLLSAAKSKPIIAEPEIHGAQPLDGVTGFLVLMSEGLYKALEAAHGPGQANQEIAAMIDTEFAKQTSLDAVAQAVVDRVKRIHSDTFASGGERARFCPRHEDMTLLVRNFGYPLGEMSQPTPSPAPAAGGRVYPVSVPYSSAQSTSKTSVTLSLVMPSQGQMVNGAHSASTLDEATPTLTNQSPTLTLQSTNTHTQSSSSSSDGGLFRSRPAHSLPPGEDGRVEPYVDFAEFYRLWSVDHGEQSVVTAP
  binding: binds
